Reference: article PMC10807094
Results are given in words; binding and its absence hold for the method and conditions named. In cells and extracts the contact can be indirect. Some entries that bind do so weakly or less than the wild type.

Target: T1, serine/arginine rich splicing factor 5 (SRSF5) (UniProt Q13243)
T1 sequence: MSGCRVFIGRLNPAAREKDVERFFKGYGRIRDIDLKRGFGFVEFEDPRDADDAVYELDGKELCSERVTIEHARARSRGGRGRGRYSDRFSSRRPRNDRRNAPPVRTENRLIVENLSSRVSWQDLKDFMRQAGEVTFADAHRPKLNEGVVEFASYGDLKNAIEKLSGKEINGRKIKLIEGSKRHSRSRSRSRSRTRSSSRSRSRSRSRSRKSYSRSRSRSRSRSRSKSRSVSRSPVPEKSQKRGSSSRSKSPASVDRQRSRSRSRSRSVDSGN
Assay: co-IP; HEK-293T cells, with and without LINC01852 overexpression; MG132 (20 µM) for 6 h before harvest; bait not stated

binding: binds
B1: E3 ubiquitin ligase TRIM72 (protein, UniProt Q6ZMU5 1-477)
chain: MSAAPGLLHQELSCPLCLQLFDAPVTAECGHSFCRACLGRVAGEPAADGTVLCPCCQAPTRPQALSTNLQLARLVEGLAQVPQGHCEEHLDPLSIYCEQDRALVCGVCASLGSHRGHRLLPAAEAHARLKTQLPQQKLQLQEACMRKEKSVAVLEHQLVEVEETVRQFRGAVGEQLGKMRVFLAALEGSLDREAERVRGEAGVALRRELGSLNSYLEQLRQMEKVLEEVADKPQTEFLMKYCLVTSRLQKILAESPPPARLDIQLPIISDDFKFQVWRKMFRALMPALEELTFDPSSAHPSLVVSSSGRRVECSEQKAPPAGEDPRQFDKAVAVVAHQQLSEGEHYWEVDVGDKPRWALGVIAAEAPRRGRLHAVPSQGLWLLGLREGKILEAHVEAKEPRALRSPERRPTRIGLYLSFGDGVLSFYDASDADALVPLFAFHERLPRPVYPFFDVCWHDKGKNAQPLLLVGPEGAEA
